This is one part of the list.
What was measured:
Assay in all cases: log2 fold change, soluble protein after heating vs DMSO (PISA); higher = thermal stabilisation; K562 lysate, 10 uM; active = over 0.2 and 3.5 SD of the protein, either way, in both replicates (recomputed)
[1] = compound: C1=CC=C(C=C1)[C@H](COC2=CC3=C(C=C2)NC(=O)N3)NC(=O)C4=CC=CN(C4=O)CC5=CC(=C(C=C5)F)F
Summary of the method: (§1)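 Values give the log-two fold change in thermal stability against solvent controls, from duplicates. Crude K562 extract at 1 mg/mL protein, made by dounce homogenisation in PBS pH 7.4 with 1 mM MgCl2, was treated with 10 μM compound for 30 min. After 3 min heating across 48°C-58°C, aliquots were pooled, adjusted to 0.5% NP-40 at 4°C and centrifuged at 21,000xg for 90 min. The supernatant was measured by TMTpro 16plex LC-MS/MS with channel sums equalised.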

By UniProt entry, the sequences of proteins in these tests, tags left out. Where a name states a change or a piece, a line headed by the entry shows the natural chain unless it says otherwise.
UniProt Q9Y3Z3: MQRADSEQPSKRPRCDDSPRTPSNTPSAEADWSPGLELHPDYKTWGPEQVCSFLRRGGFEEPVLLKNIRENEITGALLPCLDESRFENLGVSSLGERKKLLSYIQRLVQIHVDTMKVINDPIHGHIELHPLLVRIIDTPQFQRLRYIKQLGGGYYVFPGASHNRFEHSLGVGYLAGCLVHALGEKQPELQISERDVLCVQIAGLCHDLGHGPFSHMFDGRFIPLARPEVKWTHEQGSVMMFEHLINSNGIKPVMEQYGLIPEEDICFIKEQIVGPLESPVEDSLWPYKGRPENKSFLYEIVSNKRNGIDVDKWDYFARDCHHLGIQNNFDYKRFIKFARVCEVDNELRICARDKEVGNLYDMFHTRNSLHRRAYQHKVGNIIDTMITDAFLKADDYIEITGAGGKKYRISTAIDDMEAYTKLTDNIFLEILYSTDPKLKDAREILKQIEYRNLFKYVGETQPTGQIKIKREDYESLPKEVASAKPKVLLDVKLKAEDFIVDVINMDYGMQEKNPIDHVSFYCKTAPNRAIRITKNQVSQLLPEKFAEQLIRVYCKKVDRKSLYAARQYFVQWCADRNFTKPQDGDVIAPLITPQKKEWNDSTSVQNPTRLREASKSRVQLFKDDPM
UniProt O00767: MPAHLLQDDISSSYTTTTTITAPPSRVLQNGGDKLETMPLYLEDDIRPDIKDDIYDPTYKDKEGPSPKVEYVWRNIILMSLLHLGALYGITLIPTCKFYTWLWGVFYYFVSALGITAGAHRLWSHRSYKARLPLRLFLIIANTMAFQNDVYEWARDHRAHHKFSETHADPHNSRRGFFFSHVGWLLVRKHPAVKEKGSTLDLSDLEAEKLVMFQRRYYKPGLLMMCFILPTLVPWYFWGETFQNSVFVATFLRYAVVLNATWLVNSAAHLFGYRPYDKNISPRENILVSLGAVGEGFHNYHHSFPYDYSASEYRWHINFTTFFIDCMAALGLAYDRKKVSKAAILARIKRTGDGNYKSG
UniProt Q99719: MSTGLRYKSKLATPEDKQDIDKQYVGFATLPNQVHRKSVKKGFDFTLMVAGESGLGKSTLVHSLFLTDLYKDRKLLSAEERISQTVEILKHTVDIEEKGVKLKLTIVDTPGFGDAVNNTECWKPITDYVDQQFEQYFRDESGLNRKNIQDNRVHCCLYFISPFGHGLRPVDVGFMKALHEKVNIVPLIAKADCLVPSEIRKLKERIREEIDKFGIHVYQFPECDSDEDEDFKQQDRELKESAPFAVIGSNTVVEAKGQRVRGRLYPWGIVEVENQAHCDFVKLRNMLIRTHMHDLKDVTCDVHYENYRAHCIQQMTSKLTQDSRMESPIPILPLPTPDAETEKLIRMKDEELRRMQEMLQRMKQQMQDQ
UniProt P67812: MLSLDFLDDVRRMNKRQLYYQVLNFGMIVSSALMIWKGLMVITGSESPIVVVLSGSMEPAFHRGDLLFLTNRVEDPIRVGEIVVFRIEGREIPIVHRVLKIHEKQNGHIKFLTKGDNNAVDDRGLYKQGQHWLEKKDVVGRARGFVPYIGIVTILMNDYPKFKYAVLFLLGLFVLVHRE
UniProt O00560: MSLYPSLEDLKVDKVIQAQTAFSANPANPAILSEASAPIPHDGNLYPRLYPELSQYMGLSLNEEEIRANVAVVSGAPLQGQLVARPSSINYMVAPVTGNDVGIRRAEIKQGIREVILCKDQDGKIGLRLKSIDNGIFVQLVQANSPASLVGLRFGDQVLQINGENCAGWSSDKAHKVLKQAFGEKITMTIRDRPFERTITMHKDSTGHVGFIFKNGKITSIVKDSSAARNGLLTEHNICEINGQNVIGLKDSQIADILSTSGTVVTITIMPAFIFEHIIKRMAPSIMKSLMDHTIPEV
UniProt O95104: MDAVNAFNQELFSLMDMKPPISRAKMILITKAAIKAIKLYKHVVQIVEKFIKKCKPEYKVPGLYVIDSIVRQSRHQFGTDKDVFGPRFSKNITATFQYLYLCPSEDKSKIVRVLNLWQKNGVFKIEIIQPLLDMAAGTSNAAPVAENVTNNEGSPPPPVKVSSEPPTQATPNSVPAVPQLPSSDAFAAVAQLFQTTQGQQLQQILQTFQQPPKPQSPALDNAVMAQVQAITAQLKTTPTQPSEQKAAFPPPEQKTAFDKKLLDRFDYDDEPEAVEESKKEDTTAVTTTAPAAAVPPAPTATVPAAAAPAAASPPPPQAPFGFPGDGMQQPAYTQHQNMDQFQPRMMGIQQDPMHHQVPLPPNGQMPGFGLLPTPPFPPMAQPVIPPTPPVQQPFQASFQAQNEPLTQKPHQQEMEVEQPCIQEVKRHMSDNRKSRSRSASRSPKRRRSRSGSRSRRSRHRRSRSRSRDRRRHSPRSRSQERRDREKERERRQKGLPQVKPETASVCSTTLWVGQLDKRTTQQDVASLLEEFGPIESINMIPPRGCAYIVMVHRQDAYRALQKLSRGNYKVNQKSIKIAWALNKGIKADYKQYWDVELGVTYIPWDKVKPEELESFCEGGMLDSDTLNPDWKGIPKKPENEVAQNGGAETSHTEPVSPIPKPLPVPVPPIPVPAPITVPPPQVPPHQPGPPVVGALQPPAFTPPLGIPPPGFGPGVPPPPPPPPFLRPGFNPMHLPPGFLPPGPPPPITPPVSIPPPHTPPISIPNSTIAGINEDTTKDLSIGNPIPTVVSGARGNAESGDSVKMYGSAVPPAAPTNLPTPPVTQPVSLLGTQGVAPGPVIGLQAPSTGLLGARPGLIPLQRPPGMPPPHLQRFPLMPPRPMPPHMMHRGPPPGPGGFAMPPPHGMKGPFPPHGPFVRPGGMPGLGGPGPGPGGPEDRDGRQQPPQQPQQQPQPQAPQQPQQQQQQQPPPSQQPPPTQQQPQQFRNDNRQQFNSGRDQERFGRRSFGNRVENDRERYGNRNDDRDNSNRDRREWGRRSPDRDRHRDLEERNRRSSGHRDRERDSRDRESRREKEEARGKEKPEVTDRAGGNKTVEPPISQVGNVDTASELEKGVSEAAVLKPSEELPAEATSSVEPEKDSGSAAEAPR
UniProt Q9Y6U3: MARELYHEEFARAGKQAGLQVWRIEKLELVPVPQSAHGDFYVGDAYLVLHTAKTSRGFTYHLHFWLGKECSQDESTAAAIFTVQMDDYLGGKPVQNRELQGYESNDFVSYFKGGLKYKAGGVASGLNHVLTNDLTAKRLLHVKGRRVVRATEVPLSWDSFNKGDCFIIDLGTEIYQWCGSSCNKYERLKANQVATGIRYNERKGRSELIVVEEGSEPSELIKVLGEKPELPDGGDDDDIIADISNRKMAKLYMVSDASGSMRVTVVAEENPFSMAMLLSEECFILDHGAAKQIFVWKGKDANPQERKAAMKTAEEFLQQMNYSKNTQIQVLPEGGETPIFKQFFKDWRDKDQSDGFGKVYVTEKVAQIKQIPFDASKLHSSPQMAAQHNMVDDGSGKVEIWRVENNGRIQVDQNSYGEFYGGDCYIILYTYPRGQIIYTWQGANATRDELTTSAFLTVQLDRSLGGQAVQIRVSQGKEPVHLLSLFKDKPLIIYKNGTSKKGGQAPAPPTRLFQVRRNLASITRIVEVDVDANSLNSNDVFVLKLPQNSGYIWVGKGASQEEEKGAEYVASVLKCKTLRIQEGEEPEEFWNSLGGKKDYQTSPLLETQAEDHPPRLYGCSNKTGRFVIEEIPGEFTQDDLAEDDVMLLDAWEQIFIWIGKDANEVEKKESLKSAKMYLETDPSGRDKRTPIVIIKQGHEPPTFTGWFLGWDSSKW
UniProt O95487: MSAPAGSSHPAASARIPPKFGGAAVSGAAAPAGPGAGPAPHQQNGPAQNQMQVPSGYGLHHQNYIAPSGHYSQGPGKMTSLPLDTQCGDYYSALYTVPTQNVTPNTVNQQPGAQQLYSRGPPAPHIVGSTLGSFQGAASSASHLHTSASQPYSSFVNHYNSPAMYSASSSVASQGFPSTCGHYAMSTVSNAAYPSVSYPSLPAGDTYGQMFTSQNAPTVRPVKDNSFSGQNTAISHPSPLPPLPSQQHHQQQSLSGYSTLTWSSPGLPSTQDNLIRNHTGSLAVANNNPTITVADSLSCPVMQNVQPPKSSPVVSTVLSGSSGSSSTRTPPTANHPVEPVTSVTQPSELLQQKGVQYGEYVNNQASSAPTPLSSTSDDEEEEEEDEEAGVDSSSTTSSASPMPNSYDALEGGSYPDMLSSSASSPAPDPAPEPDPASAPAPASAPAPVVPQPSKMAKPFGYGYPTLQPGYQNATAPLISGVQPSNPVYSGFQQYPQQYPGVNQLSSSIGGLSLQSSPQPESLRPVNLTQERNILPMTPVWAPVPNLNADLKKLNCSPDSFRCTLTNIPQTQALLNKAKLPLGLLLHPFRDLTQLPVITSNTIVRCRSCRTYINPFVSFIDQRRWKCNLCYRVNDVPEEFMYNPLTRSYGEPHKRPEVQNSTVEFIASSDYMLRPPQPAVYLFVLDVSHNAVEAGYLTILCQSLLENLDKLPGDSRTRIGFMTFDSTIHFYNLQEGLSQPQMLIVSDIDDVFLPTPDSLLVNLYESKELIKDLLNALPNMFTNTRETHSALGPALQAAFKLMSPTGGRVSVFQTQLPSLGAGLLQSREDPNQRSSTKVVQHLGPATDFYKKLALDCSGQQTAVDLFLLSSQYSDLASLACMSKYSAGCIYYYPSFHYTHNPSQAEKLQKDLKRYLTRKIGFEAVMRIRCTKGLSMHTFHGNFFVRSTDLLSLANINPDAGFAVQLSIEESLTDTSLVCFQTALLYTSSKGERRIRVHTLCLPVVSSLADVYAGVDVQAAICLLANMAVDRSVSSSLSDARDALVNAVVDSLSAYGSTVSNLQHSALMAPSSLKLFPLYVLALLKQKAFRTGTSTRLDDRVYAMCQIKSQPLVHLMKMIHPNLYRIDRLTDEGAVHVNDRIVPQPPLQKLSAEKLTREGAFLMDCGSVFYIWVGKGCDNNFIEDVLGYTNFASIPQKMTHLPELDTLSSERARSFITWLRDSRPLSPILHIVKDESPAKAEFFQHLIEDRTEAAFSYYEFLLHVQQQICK
UniProt Q5K651: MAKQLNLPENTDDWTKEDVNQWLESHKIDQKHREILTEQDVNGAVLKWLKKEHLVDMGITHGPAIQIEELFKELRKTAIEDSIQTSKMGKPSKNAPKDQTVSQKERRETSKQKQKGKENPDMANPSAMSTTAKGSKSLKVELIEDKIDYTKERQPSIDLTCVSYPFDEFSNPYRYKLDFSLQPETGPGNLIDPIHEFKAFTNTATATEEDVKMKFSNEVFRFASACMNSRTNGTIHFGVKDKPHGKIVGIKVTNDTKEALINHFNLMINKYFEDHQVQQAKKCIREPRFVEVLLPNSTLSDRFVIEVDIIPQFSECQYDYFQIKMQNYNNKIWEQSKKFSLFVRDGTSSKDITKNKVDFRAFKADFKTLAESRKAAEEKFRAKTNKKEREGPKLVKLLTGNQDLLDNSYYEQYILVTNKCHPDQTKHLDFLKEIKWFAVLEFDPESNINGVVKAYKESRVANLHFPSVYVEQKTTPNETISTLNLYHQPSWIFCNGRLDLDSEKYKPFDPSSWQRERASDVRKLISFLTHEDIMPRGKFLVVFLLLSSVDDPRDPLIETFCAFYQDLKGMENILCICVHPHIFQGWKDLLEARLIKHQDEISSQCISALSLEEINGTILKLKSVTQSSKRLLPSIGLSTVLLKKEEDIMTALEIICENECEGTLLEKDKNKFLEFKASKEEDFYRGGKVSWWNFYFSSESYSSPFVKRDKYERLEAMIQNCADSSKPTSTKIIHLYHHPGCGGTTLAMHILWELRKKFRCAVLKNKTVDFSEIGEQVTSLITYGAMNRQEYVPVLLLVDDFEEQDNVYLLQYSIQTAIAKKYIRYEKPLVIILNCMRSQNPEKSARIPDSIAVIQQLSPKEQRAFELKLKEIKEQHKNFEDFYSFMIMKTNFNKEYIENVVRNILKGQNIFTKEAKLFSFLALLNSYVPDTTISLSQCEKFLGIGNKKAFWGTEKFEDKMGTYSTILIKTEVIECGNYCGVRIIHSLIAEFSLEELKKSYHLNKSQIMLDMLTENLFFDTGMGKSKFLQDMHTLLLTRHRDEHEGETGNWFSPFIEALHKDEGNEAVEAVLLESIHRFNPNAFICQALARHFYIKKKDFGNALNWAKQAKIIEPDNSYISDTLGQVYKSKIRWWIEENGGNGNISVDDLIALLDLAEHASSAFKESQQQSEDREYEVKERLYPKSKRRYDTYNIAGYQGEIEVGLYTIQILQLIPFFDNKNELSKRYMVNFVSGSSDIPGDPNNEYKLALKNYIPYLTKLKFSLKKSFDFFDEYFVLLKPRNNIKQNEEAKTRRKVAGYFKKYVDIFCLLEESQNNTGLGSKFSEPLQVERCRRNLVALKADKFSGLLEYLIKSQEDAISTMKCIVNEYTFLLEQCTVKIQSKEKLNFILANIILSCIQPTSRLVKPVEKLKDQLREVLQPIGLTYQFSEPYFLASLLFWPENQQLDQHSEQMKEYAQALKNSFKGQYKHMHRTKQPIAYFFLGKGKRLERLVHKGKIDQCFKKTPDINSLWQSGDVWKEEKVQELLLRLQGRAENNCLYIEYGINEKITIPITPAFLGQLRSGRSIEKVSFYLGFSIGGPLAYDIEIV

[2] = compound: CC1=C(SC2=C1C(=N[C@H](C3=NN=C(N32)C)CC(=O)N)C4=CC=C(C=C4)Cl)C
Summary of the method: as §1

[3] = compound: CC1=C2C(=CC=C1)N=C(N(C2=O)C3=CC=CC=C3C)CN4C=NC5=C(N=CN=C54)N
Summary of the method: as §1

[4] = compound: Cc1sc2c(c1C)C(c1ccc(Cl)cc1)=N[C@@H](CC(=O)OC(C)(C)C)c1nnc(C)n1-2
Summary of the method: as §1

[5] = compound: c1ccc([C@@H]2C[C@H]2NC2CCNCC2)cc1
Summary of the method: as §1

Measured: log2 fold change

SAFB2 (UniProt Q14151)
inactive: [1] 0.03 | [2] -0.009 | [3] -0.012 | [4] 0.027 | [5] -0.042

SEC24A (UniProt O95486)
inactive: [1] 0.022 | [2] -0.009 | [3] 0.009 | [4] -0.008 | [5] 0.073

SCRN3 (UniProt Q0VDG4)
inactive: [1] 0.033 | [2] -0.004 | [3] 0.001 | [4] 0.003 | [5] 0.003

SELENOF (UniProt O60613)
inactive: [1] -0.005 | [2] -0.011 | [3] -0.008 | [4] -0.019 | [5] -0.005

SCCPDH (UniProt Q8NBX0)
inactive: [1] 0.165 | [2] -0.144 | [3] 0.038 | [4] -0.004 | [5] -0.164

SCAMP3 isoform 2 (UniProt O14828)
inactive: [1] 0.217 | [2] -0.214 | [3] 0.046 | [4] 0.079 | [5] 0.05

SEMA4C (UniProt Q9C0C4)
inactive: [1] 0.009 | [2] -0.023 | [3] 0.039 | [4] -0.032 | [5] -0.012

SDHB (UniProt P21912)
inactive: [1] 0.102 | [2] -0.009 | [3] -0.023 | [4] 0.01 | [5] -0.002

SCAMP1 (UniProt O15126)
inactive: [1] 0.009 | [2] -0.025 | [3] 0.008 | [4] -0.108 | [5] -0.088

SEC11C (UniProt Q9BY50)
inactive: [1] -0.215 | [2] -0.164 | [3] 0.075 | [4] -0.032 | [5] -0.005

2 neighbouring entries from above, quoted:
SDHB (UniProt P21912)
inactive: [1] 0.102 | [2] -0.009 | [3] -0.023 | [4] 0.01 | [5] -0.002

SCAMP1 (UniProt O15126)
inactive: [1] 0.009 | [2] -0.025 | [3] 0.008 | [4] -0.108 | [5] -0.088

Remaining list, next part.

SAMHD1 (UniProt Q9Y3Z3)
inactive: [1] 0.005 | [2] 0.002 | [3] -0.018 | [4] 0.051 | [5] -0.002

SEPTIN11 isoform 2 (UniProt Q9NVA2)
inactive: [1] 0.03 | [2] -0.024 | [3] 0.007 | [4] -0.028 | [5] 0.012

SEPTIN5 (UniProt G3XAH0)
inactive: [1] 0.015 | [2] -0.024 | [3] -0.04 | [4] 0.048 | [5] -0.078

SCPEP1 (UniProt Q9HB40)
inactive: [1] -0.048 | [2] 0.002 | [3] -0.087 | [4] 0 | [5] 0.04

SCD (UniProt O00767)
inactive: [1] -0.016 | [2] -0.007 | [3] 0.103 | [4] -0.179 | [5] -0.184

SEPTIN5 (UniProt Q99719)
inactive: [1] 0.019 | [2] -0.023 | [3] 0.004 | [4] 0.01 | [5] 0.059

SELENOS (UniProt Q9BQE4)
inactive: [1] 0.019 | [2] 0.022 | [3] -0.104 | [4] 0.042 | [5] 0

S100P (UniProt P25815)
inactive: [1] -0.017 | [2] -0.083 | [3] -0.066 | [4] 0.001 | [5] 0.098

SAP30BP (UniProt Q9UHR5)
inactive: [1] 0.055 | [2] 0 | [3] 0 | [4] 0.013 | [5] -0.02

SAR1B (UniProt Q9Y6B6)
inactive: [1] -0.006 | [2] -0.007 | [3] -0.01 | [4] -0.068 | [5] 0.052

SEC62 (UniProt Q99442)
inactive: [1] 0.059 | [2] -0.017 | [3] 0.015 | [4] 0.043 | [5] -0.023

SEC11A (UniProt P67812)
inactive: [1] -0.037 | [2] 0.057 | [3] 0.07 | [4] -0.067 | [5] 0.015

SAMD4B (UniProt Q5PRF9)
inactive: [1] -0.014 | [2] 0.038 | [3] 0.056 | [4] 0.01 | [5] -0.034

SEC31A (UniProt D6REX3)
inactive: [1] -0.021 | [2] 0.024 | [3] 0 | [4] 0.008 | [5] 0.016

SDCBP (UniProt O00560)
inactive: [1] -0.02 | [2] -0.004 | [3] -0.031 | [4] -0.018 | [5] 0.008

SEMA4B (UniProt Q9NPR2)
inactive: [1] -0.097 | [2] 0.29 | [3] 0.068 | [4] 0.048 | [5] -0.051

SECISBP2 (UniProt Q96T21)
inactive: [1] -0.106 | [2] 0.085 | [3] -0.039 | [4] -0.088 | [5] 0.081

SAFB isoform 3 (UniProt Q15424)
inactive: [1] 0.053 | [2] -0.043 | [3] 0.036 | [4] -0.022 | [5] -0.082

SCAF4 (UniProt O95104)
inactive: [1] -0.059 | [2] 0.038 | [3] 0.024 | [4] 0.015 | [5] 0

SART1 (UniProt O43290)
inactive: [1] 0.059 | [2] -0.031 | [3] 0.052 | [4] 0.002 | [5] -0.008

SCIN (UniProt Q9Y6U3)
inactive: [1] -0.001 | [2] 0.012 | [3] -0.005 | [4] -0.034 | [5] 0.137

SCFD2 (UniProt Q8WU76)
inactive: [1] 0.003 | [2] -0.018 | [3] -0.01 | [4] -0.053 | [5] -0.005

SEC24B isoform 3 (UniProt O95487)
inactive: [1] -0.008 | [2] 0.001 | [3] 0.012 | [4] 0.049 | [5] 0.129

SBNO1 (UniProt A3KN83)
inactive: [1] 0.016 | [2] -0.001 | [3] 0.004 | [4] 0 | [5] -0.018

SCRIB (UniProt Q14160)
inactive: [1] -0.048 | [2] -0.023 | [3] 0.02 | [4] 0.023 | [5] -0.012

SENP6 (UniProt Q9GZR1)
inactive: [1] 0.001 | [2] -0.006 | [3] 0.022 | [4] -0.057 | [5] -0.016

SCAF8 (UniProt Q9UPN6)
inactive: [1] -0.091 | [2] 0.012 | [3] 0.04 | [4] 0.041 | [5] 0.095

SCP2 (UniProt P22307)
inactive: [1] 0.012 | [2] 0.02 | [3] -0.002 | [4] -0.005 | [5] 0.042

SDF2L1 (UniProt Q9HCN8)
inactive: [1] 0.01 | [2] 0.006 | [3] 0 | [4] 0.022 | [5] -0.041

SAMD9 (UniProt Q5K651)
inactive: [5] 0.077

SDHB, A0A087WWT1
inactive: [3] 0.065 | [4] -0.122 | [5] 0.099

SAFB2 (UniProt K7EQU4)
inactive: [1] 0.03 | [2] 0.1 | [4] -0.148

Reference: the supplement of paper PMC10849652
